Data: patent publication US20230139516A1
These are yes or no findings as the source states them, for the method shown. In cells and extracts the contact can be indirect. Some binding calls cover weakened binding; strength is not graded here.

Protein sequences, listed by entry. Tags and fused reporters are not part of them. Residues count along the entry.
UniProt P49327: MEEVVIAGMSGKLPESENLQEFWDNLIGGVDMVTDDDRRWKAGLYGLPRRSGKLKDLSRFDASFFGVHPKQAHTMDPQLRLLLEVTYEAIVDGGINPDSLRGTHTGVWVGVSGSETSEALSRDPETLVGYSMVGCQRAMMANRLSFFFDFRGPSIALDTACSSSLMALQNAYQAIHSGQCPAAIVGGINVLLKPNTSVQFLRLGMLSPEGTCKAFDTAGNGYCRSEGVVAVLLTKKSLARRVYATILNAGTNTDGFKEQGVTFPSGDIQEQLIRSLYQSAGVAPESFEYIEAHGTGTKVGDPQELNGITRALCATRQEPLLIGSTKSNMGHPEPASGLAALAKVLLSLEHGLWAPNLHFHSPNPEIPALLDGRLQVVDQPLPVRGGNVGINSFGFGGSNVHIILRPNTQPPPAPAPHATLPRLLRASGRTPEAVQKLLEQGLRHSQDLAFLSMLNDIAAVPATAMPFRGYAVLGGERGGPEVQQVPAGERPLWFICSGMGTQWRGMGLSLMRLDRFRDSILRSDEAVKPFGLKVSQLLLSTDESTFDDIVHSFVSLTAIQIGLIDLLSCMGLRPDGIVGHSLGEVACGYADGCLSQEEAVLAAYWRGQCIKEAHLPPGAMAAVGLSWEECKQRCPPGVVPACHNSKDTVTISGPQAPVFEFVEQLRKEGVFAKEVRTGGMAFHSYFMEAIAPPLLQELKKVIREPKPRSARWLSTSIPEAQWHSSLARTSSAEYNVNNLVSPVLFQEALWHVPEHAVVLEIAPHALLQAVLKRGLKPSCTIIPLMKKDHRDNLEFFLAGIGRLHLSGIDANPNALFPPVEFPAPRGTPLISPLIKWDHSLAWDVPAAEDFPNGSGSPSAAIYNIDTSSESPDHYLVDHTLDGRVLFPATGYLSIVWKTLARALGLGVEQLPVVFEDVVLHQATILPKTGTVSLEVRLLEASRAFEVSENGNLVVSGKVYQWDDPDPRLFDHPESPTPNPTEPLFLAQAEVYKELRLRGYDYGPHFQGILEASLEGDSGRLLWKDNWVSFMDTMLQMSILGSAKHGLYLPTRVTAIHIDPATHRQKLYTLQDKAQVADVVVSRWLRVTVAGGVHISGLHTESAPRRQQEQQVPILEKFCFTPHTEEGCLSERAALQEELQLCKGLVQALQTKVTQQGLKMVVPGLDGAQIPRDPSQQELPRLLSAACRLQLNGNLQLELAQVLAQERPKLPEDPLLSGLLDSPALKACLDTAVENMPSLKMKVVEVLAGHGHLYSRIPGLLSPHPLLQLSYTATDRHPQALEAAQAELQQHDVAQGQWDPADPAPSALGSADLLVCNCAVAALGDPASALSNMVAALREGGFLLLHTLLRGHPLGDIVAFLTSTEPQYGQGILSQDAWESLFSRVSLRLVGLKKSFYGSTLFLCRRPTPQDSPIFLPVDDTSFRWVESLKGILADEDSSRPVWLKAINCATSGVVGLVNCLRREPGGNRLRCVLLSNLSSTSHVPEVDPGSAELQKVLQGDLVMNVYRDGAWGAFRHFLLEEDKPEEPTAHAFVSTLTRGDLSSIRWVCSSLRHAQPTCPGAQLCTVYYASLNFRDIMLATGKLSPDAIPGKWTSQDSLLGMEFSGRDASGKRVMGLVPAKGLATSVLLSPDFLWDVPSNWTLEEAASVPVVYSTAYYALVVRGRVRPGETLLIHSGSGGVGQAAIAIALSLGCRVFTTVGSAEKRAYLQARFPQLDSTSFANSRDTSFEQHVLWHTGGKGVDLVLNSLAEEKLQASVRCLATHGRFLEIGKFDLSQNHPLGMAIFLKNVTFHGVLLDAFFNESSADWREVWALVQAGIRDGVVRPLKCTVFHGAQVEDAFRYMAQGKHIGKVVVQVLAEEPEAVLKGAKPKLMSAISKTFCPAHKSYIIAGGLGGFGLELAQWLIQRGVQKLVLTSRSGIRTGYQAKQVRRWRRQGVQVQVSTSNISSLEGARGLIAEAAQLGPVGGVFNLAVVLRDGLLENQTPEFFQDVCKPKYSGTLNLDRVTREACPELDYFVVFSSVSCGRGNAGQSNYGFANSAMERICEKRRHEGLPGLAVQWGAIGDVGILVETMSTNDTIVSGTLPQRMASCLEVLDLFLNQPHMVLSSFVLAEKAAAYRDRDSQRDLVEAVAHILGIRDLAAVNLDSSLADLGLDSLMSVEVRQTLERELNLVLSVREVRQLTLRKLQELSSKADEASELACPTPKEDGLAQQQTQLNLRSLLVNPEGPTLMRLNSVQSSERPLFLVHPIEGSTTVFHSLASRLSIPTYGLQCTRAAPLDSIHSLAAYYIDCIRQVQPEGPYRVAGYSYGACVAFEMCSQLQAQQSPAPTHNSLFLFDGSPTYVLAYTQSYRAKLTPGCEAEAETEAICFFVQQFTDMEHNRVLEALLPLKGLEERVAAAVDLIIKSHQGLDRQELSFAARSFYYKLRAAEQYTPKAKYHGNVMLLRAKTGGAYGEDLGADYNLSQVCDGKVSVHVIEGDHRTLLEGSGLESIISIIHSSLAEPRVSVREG
UniProt Q9P289, residues 2-416: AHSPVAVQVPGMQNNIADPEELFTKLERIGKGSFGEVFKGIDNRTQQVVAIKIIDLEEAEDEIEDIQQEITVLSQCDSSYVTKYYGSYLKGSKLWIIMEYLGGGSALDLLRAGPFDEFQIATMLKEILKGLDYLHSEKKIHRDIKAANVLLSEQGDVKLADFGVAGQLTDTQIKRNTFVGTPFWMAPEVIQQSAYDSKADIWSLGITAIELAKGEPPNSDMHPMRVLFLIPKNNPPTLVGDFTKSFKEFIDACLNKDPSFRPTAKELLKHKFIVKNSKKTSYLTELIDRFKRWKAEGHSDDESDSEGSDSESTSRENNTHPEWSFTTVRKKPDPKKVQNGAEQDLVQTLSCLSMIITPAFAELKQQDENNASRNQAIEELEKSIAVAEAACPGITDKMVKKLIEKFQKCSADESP
UniProt O14980: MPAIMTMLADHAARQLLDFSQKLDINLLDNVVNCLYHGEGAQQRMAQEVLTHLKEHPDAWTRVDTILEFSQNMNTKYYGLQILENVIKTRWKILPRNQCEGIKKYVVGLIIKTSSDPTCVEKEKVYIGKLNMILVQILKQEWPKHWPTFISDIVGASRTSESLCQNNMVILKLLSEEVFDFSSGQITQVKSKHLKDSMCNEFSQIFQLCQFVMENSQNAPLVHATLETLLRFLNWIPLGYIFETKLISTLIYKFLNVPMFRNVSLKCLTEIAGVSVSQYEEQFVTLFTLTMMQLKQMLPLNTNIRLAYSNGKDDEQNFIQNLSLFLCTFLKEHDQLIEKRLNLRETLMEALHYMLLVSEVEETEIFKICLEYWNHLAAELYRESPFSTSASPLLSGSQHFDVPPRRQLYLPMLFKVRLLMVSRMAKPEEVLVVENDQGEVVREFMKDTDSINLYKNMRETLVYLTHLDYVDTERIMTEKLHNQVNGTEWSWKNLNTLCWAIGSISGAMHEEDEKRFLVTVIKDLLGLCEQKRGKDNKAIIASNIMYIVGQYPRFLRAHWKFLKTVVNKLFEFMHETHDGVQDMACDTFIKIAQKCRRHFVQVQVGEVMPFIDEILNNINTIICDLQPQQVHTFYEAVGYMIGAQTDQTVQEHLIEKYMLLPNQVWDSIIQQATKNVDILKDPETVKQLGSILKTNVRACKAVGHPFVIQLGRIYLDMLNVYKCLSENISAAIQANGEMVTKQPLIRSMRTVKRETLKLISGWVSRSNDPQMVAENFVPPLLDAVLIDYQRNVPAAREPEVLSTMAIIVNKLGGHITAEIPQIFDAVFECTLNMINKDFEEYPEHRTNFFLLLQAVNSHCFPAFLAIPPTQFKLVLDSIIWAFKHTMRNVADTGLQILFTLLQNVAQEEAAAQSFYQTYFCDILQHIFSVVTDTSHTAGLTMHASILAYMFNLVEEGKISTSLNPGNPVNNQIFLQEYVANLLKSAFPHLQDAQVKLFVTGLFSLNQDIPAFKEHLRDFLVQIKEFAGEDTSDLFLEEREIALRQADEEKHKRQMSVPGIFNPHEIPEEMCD
UniProt Q14974: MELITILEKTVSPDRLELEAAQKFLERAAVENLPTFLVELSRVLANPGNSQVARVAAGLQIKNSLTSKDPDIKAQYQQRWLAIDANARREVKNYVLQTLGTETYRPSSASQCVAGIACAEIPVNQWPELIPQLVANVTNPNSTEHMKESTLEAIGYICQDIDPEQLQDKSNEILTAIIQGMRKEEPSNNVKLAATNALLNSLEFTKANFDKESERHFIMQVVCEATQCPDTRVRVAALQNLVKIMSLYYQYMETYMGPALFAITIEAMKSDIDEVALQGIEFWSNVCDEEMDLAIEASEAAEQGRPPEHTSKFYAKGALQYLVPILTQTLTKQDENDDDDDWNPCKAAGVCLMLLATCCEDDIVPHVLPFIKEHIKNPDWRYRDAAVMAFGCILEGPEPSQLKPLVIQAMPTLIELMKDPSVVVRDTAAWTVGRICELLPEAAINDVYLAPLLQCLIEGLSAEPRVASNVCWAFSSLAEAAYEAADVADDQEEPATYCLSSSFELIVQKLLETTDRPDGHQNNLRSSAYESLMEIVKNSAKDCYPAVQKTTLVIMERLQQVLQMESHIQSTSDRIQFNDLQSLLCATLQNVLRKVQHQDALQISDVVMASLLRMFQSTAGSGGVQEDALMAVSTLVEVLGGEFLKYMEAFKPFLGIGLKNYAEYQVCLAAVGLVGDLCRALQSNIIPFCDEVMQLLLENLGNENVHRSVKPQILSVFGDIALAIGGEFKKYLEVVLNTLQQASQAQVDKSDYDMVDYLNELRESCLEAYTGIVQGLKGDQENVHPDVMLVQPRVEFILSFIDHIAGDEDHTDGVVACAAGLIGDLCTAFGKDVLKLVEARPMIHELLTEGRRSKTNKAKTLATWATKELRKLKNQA
UniProt O43353: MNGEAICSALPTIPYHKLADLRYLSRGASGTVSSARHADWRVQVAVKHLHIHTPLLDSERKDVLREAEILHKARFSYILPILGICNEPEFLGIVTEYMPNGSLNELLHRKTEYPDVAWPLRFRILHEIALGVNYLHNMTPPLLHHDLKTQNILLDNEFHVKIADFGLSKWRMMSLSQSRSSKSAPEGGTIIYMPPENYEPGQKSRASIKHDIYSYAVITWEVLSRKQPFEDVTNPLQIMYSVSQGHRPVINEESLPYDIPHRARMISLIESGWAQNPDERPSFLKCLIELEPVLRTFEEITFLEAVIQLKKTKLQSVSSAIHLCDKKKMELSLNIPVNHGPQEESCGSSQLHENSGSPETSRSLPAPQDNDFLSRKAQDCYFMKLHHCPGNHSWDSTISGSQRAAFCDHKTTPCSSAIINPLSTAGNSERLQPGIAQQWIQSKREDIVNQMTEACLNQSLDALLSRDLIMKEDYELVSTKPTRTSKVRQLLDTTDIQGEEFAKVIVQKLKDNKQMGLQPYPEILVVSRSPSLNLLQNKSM

Tests used:
[1] = molecular target: FASN (human) (UniProt P49327); assay: IP-MS interactome analysis
[2] = molecular target: MST4 (STK26) (human) (UniProt Q9P289); assay: IP-MS interactome analysis
[3] = molecular target: Exportin-1 (human) (UniProt O14980); assay: IP-MS interactome analysis (FIG. 8)
[4] = molecular target: FASN (human) (UniProt P49327); assay: IP-MS interactome analysis (FIG. 8)
[5] = molecular target: Importin β-1 (human) (UniProt Q14974); assay: IP-MS interactome analysis (FIG. 8)

binding [1]: binds | binding [2]: binds | binding [3]: binds | binding [4]: binds | binding [5]: binds
Substance: 3×FLAG-tagged RIPK2 (RIPK2m4 with C-terminal 3×FLAG tag) (from UniProt O43353 1-540) (enzyme)
